Results: article PMC10683472, “Deep Learning-Driven Library Design for the De Novo Discovery of Bioactive Thiopeptides” (ACS Central Science, 2023)
Where a SMILES comes first, the peptide text is derived from it.

Test system: LazBCDEF
Assay: Enzymatic maturation with Laz enzymes, LC/MS analysis
Assay type: biochemical
Parameters: key: +++/++/+/– scale; +++/++/+/– scale; +++/++/+/– scale; +++/++/+/– scale
Conditions: semiquantitative LC/MS of the in vitro translated precursor treated with Laz enzymes

Compound	maturation experimental
C=C1NC(=O)[C@H](Cc2ccccc2)NC(=O)[C@H](C)NC(=O)[C@H](C(C)C)NC(=O)[C@H](CCCCN)NC(=O)[C@H](CCCNC(=N)N)NC(=O)[C@H](CCC(N)=O)NC(=O)[C@H](CC(C)C)NC(=O)[C@H](Cc2c[nH]c3ccccc23)NC(=O)[C@H](Cc2ccccc2)NC(=O)[C@H](CO)NC(=O)[C@H]([C@@H](C)CC)NC(=O)[C@H](CCCC(N)=O)NC(=O)[C@H](Cc2c[nH]c3ccccc23)NC(=O)c2ccc(-c3nc(C(=O)OC)cs3)nc2-c2csc1n2 [TL3] (HELM PEPTIDE1{W.[O=C([C@H](CCCC(=O)[*:3])N[*:1])[*:2]].I.S.F.W.L.Q.R.K.V.A.F}|PEPTIDE2{[am]}|CHEM1{[C=C(N[*:2])c1nc(-c2nc(-c3nc(C(=O)OC)cs3)ccc2C(=O)[*:1])cs1]}$PEPTIDE1,PEPTIDE2,2:R3-1:R1|PEPTIDE1,CHEM1,1:R1-1:R1|PEPTIDE1,CHEM1,13:R2-1:R2$$$V2.0; bridges inferred)	+++
C=C1NC(=O)[C@H](CCCCN)NC(=O)[C@H](Cc2c[nH]c3ccccc23)NC(=O)[C@H]([C@@H](C)O)NC(=O)[C@H](CCCNC(=N)N)NC(=O)[C@H](CCCNC(=N)N)NC(=O)[C@H](CCCCN)NC(=O)[C@H](Cc2c[nH]c3ccccc23)NC(=O)[C@H](CCCC(N)=O)NC(=O)[C@H](CC(C)C)NC(=O)[C@H]([C@@H](C)O)NC(=O)[C@H](Cc2c[nH]c3ccccc23)NC(=O)c2ccc(-c3nc(C(=O)OC)cs3)nc2-c2csc1n2 [IR8] (HELM PEPTIDE1{W.T.L.[O=C([C@H](CCCC(=O)[*:3])N[*:1])[*:2]].W.K.R.R.T.W.K}|PEPTIDE2{[am]}|CHEM1{[C=C(N[*:2])c1nc(-c2nc(-c3nc(C(=O)OC)cs3)ccc2C(=O)[*:1])cs1]}$PEPTIDE1,PEPTIDE2,4:R3-1:R1|PEPTIDE1,CHEM1,1:R1-1:R1|PEPTIDE1,CHEM1,11:R2-1:R2$$$V2.0; bridges inferred)	+++
C=C1NC(=O)[C@H](CCCC(N)=O)NC(=O)[C@H](Cc2ccc(O)cc2)NC(=O)[C@H](CC(C)C)NC(=O)[C@H](CCCC)NC(=O)[C@H](CC(N)=O)NC(=O)[C@H]([C@@H](C)O)NC(=O)[C@H](CCC(N)=O)NC(=O)[C@H](CCCCN)NC(=O)[C@H]([C@@H](C)CC)NC(=O)[C@H](CC(C)C)NC(=O)[C@H](CC(C)C)NC(=O)[C@H](C)NC(=O)[C@H](Cc2c[nH]c3ccccc23)NC(=O)c2ccc(-c3nc(C(=O)OC)cs3)nc2-c2csc1n2 [TL17] (HELM PEPTIDE1{W.A.L.L.I.K.Q.T.N.[Nle].L.Y.[O=C([C@H](CCCC(=O)[*:3])N[*:1])[*:2]]}|PEPTIDE2{[am]}|CHEM1{[C=C(N[*:2])c1nc(-c2nc(-c3nc(C(=O)OC)cs3)ccc2C(=O)[*:1])cs1]}$PEPTIDE1,PEPTIDE2,13:R3-1:R1|PEPTIDE1,CHEM1,1:R1-1:R1|PEPTIDE1,CHEM1,13:R2-1:R2$$$V2.0; bridges inferred)	+++
C=C1NC(=O)C(=CC)NC(=O)[C@H](Cc2c[nH]c3ccccc23)NC(=O)[C@H](Cc2c[nH]cn2)NC(=O)[C@H](Cc2c[nH]c3ccccc23)NC(=O)[C@H]([C@@H](C)O)NC(=O)[C@H]([C@@H](C)CC)NC(=O)[C@H](Cc2ccccc2)NC(=O)[C@H](CCC(N)=O)NC(=O)[C@H](CCCNC(=N)N)NC(=O)[C@H](CCCCN)NC(=O)[C@H](CCCC)NC(=O)[C@H](CO)NC(=O)[C@H](Cc2c[nH]c3ccccc23)NC(=O)c2ccc(-c3nc(C(=O)OC)cs3)nc2-c2csc1n2 [IR1] (HELM PEPTIDE1{W.S.[Nle].K.R.Q.F.I.T.W.H.W.[CC=C(N[*:1])C(=O)[*:2]]}|CHEM1{[C=C(N[*:2])c1nc(-c2nc(-c3nc(C(=O)OC)cs3)ccc2C(=O)[*:1])cs1]}$PEPTIDE1,CHEM1,1:R1-1:R1|PEPTIDE1,CHEM1,13:R2-1:R2$$$V2.0; bridges inferred)	+++
